Results on one molecule are retold here after article PMC8871863, “Initiator-Directed Transcription: Fission Yeast Nmtl Initiator Directs Preinitiation Complex Formation and Transcriptional Initiation” (Genes, 2022).

No constants are given. Whether binding was seen depends on the method and setting. A result given as binding can be weak or reduced; the word gives no strength.

For the test, the target named is TAF1 (S. pombe (endogenous in whole-cell extract)). Briefly: immunodepletion of extract on anti-TAF1 Sepharose, Western blot of the depleted extract; whole-cell extract of the TAP-tagged Med7 strain over a column of rabbit anti-TAF1 (1 mg/mL) crosslinked to CNBr-activated Sepharose; depleted extract blotted. (In general: In western blotting, separated proteins are transferred to a membrane and probed.)

B1: TAF5 (protein, UniProt O13282 1-643)
chain: MSATNGPQPQDLNRIVLDYLAKKGYSRTEAMLRLEASGSGVSVEEKLKSIEETPDAYTHTYTILRDWVDSSLELYKAELHRILFPIFVHSYLNLLSQDHYEAAKQFYELFKDDHTDLHDFDVKNLKSLSLPSHVAEDRTAQQYRQNKYQLHFSRITFDLLLHFLFENVSNGGSIIIKLINQHIDIHIVPGRPTVLENAKVINEQEGITGQSFERGDAQLQPVKLQQMPMDKEMEKIVEMDLEEEDMMHQNDPNNQSPKLLKEFRKLHEPNAEDAPSRDYIPLPPHKGVDILSEVEAVKDWSKRLHLGPRASLPSVCMYTFHHTNNNMNCAEFSPDSTMIACGFQESYIRLWSIKADKKSLPKSTSVEDSDGSVRLLSHSGPVYGTTFSPDNKYLLSCSEDASARLWSVDTKTALVAYKGHTGPVWDVAFGPFGHYFATASHDQTAQLWSCDHIYPLRVFAGHLSDVDCVTFHPNSAYVLTGSSDKTCRLWDVHRGHSVRVFNGHTQPVTAVAIAPDGHTMASADSEGLIHLWDIGTGRRIKTMRGHRGNIYSLSFSRESTVLVSGGSDCTVRAWDVFKTNYNNPVSSSLTGSVVTPFSAKTSTFNEVNWSTSPDQMVALYTKQTPIFNVSFTRRNLCLAISVS
With B1, the binding entry is given as “binds”.
